Results reported in paper doi:10.1101/2024.03.07.581839 (bioRxiv, 2024).
Where two headings read alike, the source gives them in different places. These are yes or no findings as the source states them, for the method shown. Some entries that bind do so weakly or less than the wild type.

Assays:
human GPR156 (human) [1] = target: human GPR156 (human) (UniProt Q8NFN8); assay: cryo-EM structure
human GPR156 (human) [2] = target: human GPR156 (human) (UniProt Q8NFN8); assay: cryo-EM structure; remark: listed apart in the source

B1: human GPR156 (receptor)
chain: MEPEINCSELCDSFPGQELDRRPLHDLCKTTITSSHHSSKTISSLSPVLLGIVWTFLSCGLLLILFFLAFTIHCRKNRIVKMSSPNLNIVTLLGSCLTYSSAYLFGIQDVLVGSSMETLIQTRLSMLCIGTSLVFGPILGKSWRLYKVFTQRVPDKRVIIKDLQLLGLVAALLMADVILLMTWVLTDPIQCLQILSVSMTVTGKDVSCTSTSTHFCASRYSDVWIALIWGCKGLLLLYGAYLAGLTGHVSSPPVNQSLTIMVGVNLLVLAAGLLFVVTRYLHSWPNLVFGLTSGGIFVCTTTINCFIFIPQLKQWKAFEEENQTIRRMAKYFSTPNKSFHTQYGEEENCHPRGEKSSMERLLTEKNAVIESLQEQVNNAKEKIVRLMSAECTYDLPEGAAPPASSPNKDVQAVASVHTLAAAQGPSGHLSDFQNDPGMAARDSQCTSGPSSYAQSLEGPGKDSSFSPGKEEKISDSKDFSDHLDSGCSQKPWTEQSLGPERGDQVPMNPSQSLLPERGGSDPQRQRHLENSEEPPERRSRVSSVIREKLQEVLQDLGLGPEASLSTAPSCHQQTWKNSAAFSPQKMPLSKELGFSPYMVRRRRAAQRARSHFPGSAPSSVGHRANRTVPGAHSRLHVQNGDSPSLAPQTTDSRVRRPSSRKPSLPSDPQDRPGTLEGSKQSQTEPEGARGSKAAFLRQPSGSGRAPSPAAPCLSKASPDLPEQWQLWPPVPSGCASLSSQHSYFDTESSSSDEFFCRCHRPYCEICFQSSSDSSDSGTSDTDPEPTGGLASWEKLWARSKPIVNFKDDLKPTLV
- binding (human GPR156 (human) [1]): binds
- binding (human GPR156 (human) [2]): binds
